Laboratory results: article PMC5740495
These are yes or no findings as the source states them, for the method shown. In cells and extracts the contact can be indirect. Here binding means that the protein was enriched with, or labelled near, the bait; the list need not be complete. Values belong to the molecule of their own block, whether it stands above or below them.

Amino acid sequences for entries named in this document (tags omitted).
UniProt O15371: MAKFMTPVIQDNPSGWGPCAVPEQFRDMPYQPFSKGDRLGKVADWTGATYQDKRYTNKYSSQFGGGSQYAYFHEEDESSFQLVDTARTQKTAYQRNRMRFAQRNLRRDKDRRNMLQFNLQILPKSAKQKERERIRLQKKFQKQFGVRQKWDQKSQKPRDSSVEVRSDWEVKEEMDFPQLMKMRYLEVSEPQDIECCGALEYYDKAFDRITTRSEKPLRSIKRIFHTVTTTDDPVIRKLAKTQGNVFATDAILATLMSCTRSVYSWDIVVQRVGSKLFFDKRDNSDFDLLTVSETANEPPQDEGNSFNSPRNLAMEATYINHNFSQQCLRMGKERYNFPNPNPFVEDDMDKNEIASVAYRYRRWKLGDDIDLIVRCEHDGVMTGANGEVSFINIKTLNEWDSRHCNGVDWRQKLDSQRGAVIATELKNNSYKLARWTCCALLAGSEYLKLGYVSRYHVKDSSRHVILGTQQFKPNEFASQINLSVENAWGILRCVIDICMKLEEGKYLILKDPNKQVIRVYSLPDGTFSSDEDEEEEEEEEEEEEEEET
UniProt Q92973: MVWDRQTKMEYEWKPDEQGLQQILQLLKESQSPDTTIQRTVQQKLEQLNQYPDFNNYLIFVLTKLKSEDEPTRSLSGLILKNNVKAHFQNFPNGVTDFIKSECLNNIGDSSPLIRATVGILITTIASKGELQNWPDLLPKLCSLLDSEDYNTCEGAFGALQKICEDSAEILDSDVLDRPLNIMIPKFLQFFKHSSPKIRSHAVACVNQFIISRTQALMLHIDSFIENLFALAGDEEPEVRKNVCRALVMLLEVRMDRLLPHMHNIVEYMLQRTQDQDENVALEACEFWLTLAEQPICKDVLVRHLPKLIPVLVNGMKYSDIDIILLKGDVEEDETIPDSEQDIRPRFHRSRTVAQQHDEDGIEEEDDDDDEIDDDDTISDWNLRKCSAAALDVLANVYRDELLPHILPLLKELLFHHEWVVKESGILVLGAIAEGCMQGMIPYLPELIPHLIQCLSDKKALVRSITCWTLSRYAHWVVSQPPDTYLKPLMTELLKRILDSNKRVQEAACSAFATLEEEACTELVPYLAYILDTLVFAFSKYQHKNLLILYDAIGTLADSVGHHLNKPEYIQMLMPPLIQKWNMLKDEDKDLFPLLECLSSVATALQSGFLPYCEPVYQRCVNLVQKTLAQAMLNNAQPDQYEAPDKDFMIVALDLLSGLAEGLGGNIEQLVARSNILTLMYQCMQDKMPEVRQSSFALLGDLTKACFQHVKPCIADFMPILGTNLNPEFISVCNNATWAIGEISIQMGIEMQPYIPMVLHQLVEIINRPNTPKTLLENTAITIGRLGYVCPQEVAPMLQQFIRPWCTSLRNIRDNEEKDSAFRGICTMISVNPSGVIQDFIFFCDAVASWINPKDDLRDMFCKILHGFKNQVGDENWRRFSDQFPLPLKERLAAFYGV
UniProt P55060: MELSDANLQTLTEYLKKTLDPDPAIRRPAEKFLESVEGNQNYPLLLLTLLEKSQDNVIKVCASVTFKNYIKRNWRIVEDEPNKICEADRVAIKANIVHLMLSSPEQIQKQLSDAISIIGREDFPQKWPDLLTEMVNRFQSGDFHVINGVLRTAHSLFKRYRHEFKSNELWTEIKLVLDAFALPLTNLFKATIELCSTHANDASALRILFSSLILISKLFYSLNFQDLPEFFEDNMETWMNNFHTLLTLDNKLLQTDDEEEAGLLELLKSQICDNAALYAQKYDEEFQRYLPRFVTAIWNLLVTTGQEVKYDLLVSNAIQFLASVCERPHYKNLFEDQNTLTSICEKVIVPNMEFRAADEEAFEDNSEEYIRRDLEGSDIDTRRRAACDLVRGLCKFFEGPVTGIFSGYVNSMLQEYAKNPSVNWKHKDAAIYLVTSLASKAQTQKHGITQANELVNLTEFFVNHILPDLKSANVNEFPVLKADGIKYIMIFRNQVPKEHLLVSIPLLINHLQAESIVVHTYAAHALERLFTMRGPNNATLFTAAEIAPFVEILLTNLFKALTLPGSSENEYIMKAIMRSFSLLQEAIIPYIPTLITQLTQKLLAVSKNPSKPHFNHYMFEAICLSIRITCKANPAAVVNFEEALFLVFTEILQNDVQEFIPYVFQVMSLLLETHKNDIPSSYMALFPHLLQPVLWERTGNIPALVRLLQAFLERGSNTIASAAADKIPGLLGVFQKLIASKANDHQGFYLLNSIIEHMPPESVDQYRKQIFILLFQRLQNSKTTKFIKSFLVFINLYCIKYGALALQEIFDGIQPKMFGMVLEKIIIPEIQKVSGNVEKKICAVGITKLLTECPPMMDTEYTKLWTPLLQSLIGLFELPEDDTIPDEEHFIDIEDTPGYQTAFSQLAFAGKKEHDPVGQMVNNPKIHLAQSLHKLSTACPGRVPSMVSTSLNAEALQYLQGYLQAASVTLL
UniProt P52294: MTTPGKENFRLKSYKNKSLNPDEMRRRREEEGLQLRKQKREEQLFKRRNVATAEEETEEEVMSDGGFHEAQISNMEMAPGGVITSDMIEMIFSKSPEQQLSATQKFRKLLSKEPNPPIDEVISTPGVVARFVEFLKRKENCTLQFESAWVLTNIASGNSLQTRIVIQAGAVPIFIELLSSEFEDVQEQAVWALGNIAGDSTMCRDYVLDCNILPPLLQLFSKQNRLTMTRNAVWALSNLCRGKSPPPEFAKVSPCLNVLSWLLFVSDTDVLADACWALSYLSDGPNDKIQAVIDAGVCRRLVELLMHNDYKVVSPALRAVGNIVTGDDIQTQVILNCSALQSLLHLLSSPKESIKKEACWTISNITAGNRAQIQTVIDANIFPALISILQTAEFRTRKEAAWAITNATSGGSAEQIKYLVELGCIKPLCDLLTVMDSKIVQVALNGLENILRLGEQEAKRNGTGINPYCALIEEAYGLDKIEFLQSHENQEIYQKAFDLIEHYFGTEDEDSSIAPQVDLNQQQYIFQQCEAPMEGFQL
UniProt O15131: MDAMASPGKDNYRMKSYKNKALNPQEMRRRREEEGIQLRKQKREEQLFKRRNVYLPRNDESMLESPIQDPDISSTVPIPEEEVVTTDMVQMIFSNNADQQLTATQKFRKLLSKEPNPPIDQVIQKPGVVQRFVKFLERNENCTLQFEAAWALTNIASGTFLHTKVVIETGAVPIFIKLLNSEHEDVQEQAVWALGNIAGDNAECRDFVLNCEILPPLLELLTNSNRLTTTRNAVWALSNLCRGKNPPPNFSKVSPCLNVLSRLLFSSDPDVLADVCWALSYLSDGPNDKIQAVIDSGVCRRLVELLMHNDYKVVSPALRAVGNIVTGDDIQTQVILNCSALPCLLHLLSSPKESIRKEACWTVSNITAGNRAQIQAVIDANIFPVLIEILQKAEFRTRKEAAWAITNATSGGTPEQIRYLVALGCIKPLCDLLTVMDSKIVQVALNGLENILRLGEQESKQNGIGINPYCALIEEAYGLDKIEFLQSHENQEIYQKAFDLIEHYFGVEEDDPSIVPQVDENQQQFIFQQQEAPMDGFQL
UniProt O14980: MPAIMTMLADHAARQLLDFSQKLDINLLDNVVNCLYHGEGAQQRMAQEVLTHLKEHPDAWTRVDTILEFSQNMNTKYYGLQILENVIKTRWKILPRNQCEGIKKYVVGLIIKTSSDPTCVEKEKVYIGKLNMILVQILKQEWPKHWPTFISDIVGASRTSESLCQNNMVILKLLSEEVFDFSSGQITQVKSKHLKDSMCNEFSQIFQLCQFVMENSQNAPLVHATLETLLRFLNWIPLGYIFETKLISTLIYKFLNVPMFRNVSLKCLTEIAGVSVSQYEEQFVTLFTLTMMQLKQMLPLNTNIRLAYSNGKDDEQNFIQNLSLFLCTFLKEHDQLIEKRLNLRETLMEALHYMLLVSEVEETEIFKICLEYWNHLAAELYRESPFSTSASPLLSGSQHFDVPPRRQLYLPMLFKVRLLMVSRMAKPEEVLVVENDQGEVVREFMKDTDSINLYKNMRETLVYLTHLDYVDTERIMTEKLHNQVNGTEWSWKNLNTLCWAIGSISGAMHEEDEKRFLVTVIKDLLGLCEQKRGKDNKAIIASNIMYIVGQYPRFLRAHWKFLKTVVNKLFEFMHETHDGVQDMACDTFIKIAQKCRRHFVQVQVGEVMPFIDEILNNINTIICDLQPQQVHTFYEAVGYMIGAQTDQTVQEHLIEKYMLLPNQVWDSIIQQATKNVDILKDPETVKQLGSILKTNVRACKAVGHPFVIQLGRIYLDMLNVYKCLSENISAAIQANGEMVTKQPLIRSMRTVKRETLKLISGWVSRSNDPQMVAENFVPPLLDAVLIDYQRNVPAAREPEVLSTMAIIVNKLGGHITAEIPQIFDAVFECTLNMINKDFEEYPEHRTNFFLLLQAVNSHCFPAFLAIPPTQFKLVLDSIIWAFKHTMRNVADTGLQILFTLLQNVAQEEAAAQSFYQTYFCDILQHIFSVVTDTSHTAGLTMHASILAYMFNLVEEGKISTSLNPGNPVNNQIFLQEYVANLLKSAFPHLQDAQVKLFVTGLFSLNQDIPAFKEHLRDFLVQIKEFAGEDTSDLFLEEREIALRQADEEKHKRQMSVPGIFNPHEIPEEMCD
UniProt O15397: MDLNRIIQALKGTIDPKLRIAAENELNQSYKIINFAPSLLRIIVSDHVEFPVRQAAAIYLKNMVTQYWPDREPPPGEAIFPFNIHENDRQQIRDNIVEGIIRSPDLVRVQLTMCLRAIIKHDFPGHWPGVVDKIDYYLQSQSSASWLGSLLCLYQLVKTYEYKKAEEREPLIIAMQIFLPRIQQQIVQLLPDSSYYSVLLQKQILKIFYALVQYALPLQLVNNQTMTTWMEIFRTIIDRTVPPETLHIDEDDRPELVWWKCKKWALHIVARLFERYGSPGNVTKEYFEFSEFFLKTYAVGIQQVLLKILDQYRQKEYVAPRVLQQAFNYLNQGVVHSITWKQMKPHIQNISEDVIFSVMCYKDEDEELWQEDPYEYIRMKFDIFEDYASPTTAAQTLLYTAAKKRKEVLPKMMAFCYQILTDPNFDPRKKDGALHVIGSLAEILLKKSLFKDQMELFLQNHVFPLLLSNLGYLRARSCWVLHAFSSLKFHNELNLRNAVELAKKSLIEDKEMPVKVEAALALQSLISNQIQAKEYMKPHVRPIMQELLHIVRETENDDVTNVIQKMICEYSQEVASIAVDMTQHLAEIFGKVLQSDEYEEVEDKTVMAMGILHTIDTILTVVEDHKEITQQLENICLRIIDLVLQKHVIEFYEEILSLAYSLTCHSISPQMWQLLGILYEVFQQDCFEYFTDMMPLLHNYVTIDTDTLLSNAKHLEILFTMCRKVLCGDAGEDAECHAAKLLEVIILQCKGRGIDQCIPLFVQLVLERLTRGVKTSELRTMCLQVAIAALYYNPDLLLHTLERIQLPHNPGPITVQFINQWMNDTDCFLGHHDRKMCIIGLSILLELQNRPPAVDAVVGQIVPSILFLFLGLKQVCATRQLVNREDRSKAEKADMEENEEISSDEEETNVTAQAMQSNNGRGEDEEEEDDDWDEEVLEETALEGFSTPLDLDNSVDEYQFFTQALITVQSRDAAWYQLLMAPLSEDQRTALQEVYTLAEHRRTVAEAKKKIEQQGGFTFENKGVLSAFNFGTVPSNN

Assays:
XPO7 (human) = target: T1, XPO7 (human) (UniProt Q9UIA9); experiment: proximity labelling; BioID, large-scale, direct identification of biotinylated peptides: same NTR-BirA* lines; biotinylated peptides eluted from streptavidin beads with 80% ACN, 20% TFA after the on-bead digest, MS
T1 sequence: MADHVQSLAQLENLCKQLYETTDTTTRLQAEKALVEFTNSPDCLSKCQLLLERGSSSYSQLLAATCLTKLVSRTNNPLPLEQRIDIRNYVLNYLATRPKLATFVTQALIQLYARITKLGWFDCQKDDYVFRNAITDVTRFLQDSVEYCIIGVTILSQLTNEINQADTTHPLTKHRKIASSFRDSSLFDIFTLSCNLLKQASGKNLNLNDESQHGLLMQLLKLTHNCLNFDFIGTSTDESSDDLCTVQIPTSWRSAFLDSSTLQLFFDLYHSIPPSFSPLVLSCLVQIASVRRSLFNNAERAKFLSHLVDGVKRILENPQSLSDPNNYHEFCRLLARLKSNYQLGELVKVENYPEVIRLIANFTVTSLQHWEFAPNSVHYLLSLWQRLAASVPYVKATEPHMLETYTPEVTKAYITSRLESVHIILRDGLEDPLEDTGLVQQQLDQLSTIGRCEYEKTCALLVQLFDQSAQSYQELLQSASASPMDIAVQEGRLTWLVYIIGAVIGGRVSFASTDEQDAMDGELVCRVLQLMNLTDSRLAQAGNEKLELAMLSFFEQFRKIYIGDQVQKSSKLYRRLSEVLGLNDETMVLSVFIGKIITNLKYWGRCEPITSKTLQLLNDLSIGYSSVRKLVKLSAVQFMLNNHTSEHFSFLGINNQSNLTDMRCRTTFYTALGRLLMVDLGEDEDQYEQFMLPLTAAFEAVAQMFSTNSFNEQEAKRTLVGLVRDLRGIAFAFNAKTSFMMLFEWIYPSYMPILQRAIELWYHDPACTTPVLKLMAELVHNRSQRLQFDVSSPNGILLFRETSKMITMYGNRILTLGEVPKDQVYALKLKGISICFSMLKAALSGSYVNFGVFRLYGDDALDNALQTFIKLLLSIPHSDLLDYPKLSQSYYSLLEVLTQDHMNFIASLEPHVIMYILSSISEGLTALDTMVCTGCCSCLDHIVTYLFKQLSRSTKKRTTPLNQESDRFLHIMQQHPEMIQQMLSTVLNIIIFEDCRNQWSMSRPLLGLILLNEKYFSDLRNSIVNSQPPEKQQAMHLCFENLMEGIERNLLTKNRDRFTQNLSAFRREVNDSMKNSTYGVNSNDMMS

[1] = target: eukaryotic translation initiation factor 3 (subunit D, EIF3D) (human) (UniProt O15371); experiment: proximity labelling; BioID, reciprocal: cargo fused to BirA*-FLAG (N- or C-terminal) in stable Flp-In T-REx 293 lines, four biological replicates; cargo interactomes compared pairwise, with BirA* alone and non-engineered cells
TNPO1 (human) = TNPO1 (human) (UniProt Q92973); experiment: proximity labelling; BioID, large-scale, direct identification of biotinylated peptides: same NTR-BirA* lines; biotinylated peptides eluted from streptavidin beads with 80% ACN, 20% TFA after the on-bead digest, MS
XPO2 (human) = XPO2 (human) (UniProt P55060); experiment: as above
IMA5 (human) = IMA5 (human) (UniProt P52294); experiment: as above
TNPO2 (human) = target: T2, TNPO2 (human) (UniProt O14787); experiment: as above
T2 sequence: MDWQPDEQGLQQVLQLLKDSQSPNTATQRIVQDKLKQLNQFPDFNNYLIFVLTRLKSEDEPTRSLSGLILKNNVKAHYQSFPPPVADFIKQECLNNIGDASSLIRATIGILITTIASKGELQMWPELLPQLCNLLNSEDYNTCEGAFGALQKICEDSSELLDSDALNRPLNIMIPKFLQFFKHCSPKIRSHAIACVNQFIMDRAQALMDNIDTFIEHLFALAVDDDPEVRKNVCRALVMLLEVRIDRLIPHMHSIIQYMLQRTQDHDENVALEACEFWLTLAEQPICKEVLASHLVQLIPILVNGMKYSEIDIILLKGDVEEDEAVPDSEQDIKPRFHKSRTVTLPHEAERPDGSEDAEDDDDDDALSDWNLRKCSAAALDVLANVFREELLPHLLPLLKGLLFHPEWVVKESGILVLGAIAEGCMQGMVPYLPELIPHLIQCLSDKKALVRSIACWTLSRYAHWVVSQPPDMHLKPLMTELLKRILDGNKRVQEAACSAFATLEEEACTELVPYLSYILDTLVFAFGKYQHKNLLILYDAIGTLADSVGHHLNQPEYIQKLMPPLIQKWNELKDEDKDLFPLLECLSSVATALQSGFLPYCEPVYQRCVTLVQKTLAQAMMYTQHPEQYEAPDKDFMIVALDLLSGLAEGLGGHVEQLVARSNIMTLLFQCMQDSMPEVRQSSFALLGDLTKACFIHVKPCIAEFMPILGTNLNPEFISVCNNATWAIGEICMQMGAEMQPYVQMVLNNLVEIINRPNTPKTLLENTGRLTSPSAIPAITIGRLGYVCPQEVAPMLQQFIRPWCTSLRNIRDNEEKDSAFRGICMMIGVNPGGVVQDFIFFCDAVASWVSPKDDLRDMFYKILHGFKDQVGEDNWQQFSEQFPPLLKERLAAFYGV

IMA6 (human) = IMA6 (human) (UniProt O15131); experiment: as above
XPO1 (human) = XPO1 (human) (UniProt O14980); experiment: as above

binding (XPO7 (human)): binds
Molecule: CSN4 (from UniProt Q9BT78 1-406)

binding [1]: binds
Molecule: IPO8 (from UniProt O15397 1-1037)

binding (TNPO1 (human)): binds
binding (XPO2 (human)): binds
binding (IMA5 (human)): binds
binding (TNPO2 (human)): binds
binding (IMA6 (human)): binds
B1: NUP50 (protein, UniProt Q9UKX7 1-468)
chain: MAKRNAEKELTDRNWDQEDEAEEVGTFSMASEEVLKNRAIKKAKRRNVGFESDTGGAFKGFKGLVVPSGGGRFSGFGSGAGGKPLEGLSNGNNITSAPPFASAKAAADPKVAFGSLAANGPTTLVDKVSNPKTNGDSQQPSSSGLASSKACVGNAYHKQLAALNCSVRDWIVKHVNTNPLCDLTPIFKDYEKYLANIEQQHGNSGRNSESESNKVAAETQSPSLFGSTKLQQESTFLFHGNKTEDTPDKKMEVASEKKTDPSSLGATSASFNFGKKVDSSVLGSLSSVPLTGFSFSPGNSSLFGKDTTQSKPVSSPFPTKPLEGQAEGDSGECKGGDEEENDEPPKVVVTEVKEEDAFYSKKCKLFYKKDNEFKEKGIGTLHLKPTANQKTQLLVRADTNLGNILLNVLIPPNMPCTRTGKNNVLIVCVPNPPIDEKNATMPVTMLIRVKTSEDADELHKILLEKKDA

binding (XPO1 (human)): binds
binding (IMA5 (human)): binds
B2: EXOSC10 (protein, UniProt Q01780 1-885)
chain: MAPPSTREPRVLSATSATKSDGEMVLPGFPDADSFVKFALGSVVAVTKASGGLPQFGDEYDFYRSFPGFQAFCETQGDRLLQCMSRVMQYHGCRSNIKDRSKVTELEDKFDLLVDANDVILERVGILLDEASGVNKNQQPVLPAGLQVPKTVVSSWNRKAAEYGKKAKSETFRLLHAKNIIRPQLKFREKIDNSNTPFLPKIFIKPNAQKPLPQALSKERRERPQDRPEDLDVPPALADFIHQQRTQQVEQDMFAHPYQYELNHFTPADAVLQKPQPQLYRPIEETPCHFISSLDELVELNEKLLNCQEFAVDLEHHSYRSFLGLTCLMQISTRTEDFIIDTLELRSDMYILNESLTDPAIVKVFHGADSDIEWLQKDFGLYVVNMFDTHQAARLLNLGRHSLDHLLKLYCNVDSNKQYQLADWRIRPLPEEMLSYARDDTHYLLYIYDKMRLEMWERGNGQPVQLQVVWQRSRDICLKKFIKPIFTDESYLELYRKQKKHLNTQQLTAFQLLFAWRDKTARREDESYGYVLPNHMMLKIAEELPKEPQGIIACCNPVPPLVRQQINEMHLLIQQAREMPLLKSEVAAGVKKSGPLPSAERLENVLFGPHDCSHAPPDGYPIIPTSGSVPVQKQASLFPDEKEDNLLGTTCLIATAVITLFNEPSAEDSKKGPLTVAQKKAQNIMESFENPFRMFLPSLGHRAPVSQAAKFDPSTKIYEISNRWKLAQVQVQKDSKEAVKKKAAEQTAAREQAKEACKAAAEQAISVRQQVVLENAAKKRERATSDPRTTEQKQEKKRLKISKKPKDPEPPEKEFTPYDYSQSDFKAFAGNSKSKVSSQFDPNKQTPSGKKCIAAKKIKQSVGNKSMSFPTGKSDRGFRYNWPQR
